Results taken from the supplement of paper PMC10849652.
Some of the results follow.

Sequences of proteins named here, by UniProt entry; tags and fusion partners are left off. A change or cut given only in a name is not applied to a line headed by its entry.
UniProt Q9UBI1, whole entry, looked up: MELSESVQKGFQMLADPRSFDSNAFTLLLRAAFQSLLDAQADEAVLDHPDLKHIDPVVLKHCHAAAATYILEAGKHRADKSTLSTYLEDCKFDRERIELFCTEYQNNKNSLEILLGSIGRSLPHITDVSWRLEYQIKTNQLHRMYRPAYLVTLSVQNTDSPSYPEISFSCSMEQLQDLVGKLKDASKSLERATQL
UniProt P15169: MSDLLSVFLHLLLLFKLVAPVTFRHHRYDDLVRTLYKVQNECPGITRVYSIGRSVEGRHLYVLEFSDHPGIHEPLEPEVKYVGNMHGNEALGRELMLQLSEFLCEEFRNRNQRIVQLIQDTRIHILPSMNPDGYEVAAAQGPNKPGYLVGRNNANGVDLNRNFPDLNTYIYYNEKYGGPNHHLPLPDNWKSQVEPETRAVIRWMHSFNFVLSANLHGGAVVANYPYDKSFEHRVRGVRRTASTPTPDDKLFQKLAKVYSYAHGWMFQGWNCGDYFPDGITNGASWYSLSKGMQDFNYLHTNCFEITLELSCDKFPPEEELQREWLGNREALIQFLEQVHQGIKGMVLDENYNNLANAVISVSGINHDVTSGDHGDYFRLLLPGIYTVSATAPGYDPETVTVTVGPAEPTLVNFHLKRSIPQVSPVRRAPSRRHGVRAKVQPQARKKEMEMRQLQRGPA
UniProt P46108: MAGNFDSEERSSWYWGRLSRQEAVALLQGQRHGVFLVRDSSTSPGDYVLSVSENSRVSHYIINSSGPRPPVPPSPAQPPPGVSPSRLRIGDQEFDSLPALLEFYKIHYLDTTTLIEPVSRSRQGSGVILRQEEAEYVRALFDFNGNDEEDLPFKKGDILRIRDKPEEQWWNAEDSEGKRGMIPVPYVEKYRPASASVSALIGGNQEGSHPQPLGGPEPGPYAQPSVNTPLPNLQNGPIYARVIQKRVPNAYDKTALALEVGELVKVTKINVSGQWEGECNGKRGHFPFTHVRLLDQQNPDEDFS
UniProt Q9UNS2: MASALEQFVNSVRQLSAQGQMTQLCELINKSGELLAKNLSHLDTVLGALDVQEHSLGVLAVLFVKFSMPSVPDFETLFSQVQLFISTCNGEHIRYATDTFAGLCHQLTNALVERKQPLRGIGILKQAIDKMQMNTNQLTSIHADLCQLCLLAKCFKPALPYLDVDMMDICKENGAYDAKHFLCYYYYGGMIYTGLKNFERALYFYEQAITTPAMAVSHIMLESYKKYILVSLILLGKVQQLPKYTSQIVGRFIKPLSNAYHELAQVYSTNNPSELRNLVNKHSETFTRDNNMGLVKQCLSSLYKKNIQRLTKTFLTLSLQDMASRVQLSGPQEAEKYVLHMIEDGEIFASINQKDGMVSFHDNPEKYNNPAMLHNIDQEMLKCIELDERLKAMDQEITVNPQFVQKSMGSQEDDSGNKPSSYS

Legend:
Experiment in all cases: log2 fold change, soluble protein after heating vs DMSO (PISA); higher = thermal stabilisation; K562 cells, 10 uM, 30 min; active = over 0.2 and 3.5 SD of the protein, either way, in both replicates (recomputed)
[1] = compound: C1=CC=C(C=C1)[C@H](COC2=CC3=C(C=C2)NC(=O)N3)NC(=O)C4=CC=CN(C4=O)CC5=CC(=C(C=C5)F)F
Method in brief: (§1)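 Soluble protein was quantified by TMTpro 16plex LC-MS/MS after channel sums were equalised. It was obtained as the supernatant after 21,000xg for 90 min from pooled aliquots of K562 cells (2×10^6 cells/mL, 10 μM compound, 30 min) heated for 3 min across 48°C-58°C and extracted in PBS with 0.5% NP-40 at 4°C. Thermal stability values are relative to control samples and come from duplicates. They are given as log2 fold changes.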

[2] = compound: CC1=C(SC2=C1C(=N[C@H](C3=NN=C(N32)C)CC(=O)N)C4=CC=C(C=C4)Cl)C
Method in brief: as §1

[3] = compound: CC1=C2C(=CC=C1)N=C(N(C2=O)C3=CC=CC=C3C)CN4C=NC5=C(N=CN=C54)N
Method in brief: as §1

[4] = compound: Cc1sc2c(c1C)C(c1ccc(Cl)cc1)=N[C@@H](CC(=O)OC(C)(C)C)c1nnc(C)n1-2
Method in brief: as §1

[5] = compound: c1ccc([C@@H]2C[C@H]2NC2CCNCC2)cc1
Method in brief: as §1

Measured: log2 fold change

COMMD3 (UniProt Q9UBI1)
inactive: [1] -0.021 | [2] -0.028 | [3] 0.172 | [4] 0.083 | [5] 0.061

CPN1 (UniProt P15169)
inactive: [1] -0.12 | [3] 0.095 | [4] -0.178

CRK (UniProt P46108)
inactive: [1] 0 | [2] 0.013 | [3] 0.005 | [4] 0.028 | [5] -0.01

COPS3 isoform 2 (UniProt Q9UNS2)
inactive: [1] 0.009 | [3] 0.2 | [4] 0.04
